Earlier results, collected in patent publication US20250302750A1, “PHARMACEUTICAL COMPOSITION OF BEMPEDOIC ACID” (Renata Pharmaceuticals (Ireland) Ltd, priority 2022, published 2025).
At least one read-out could not be matched to a standard name with certainty.

Compound: CC(C)(CCCCCC(O)CCCCCC(C)(C)C(=O)O)C(=O)O [Bempedoic acid]
- Permeability: highly permeable
